Whole data set: some 33,000 sequences, median “E-score (-0.5 to 0.5)” near -0.0014, cut for the highest 2% near 0.25. The list shows a part of the results.
What follows are sequences tested against T1, Cad1 (UniProt P24813) (assay: PBM E-score (8-mer binding enrichment) (E-score (-0.5 to 0.5)); higher = stronger / more preferred TF binding). Details: protein concentration: 100 nM; construct: GST-full length.
T1 sequence: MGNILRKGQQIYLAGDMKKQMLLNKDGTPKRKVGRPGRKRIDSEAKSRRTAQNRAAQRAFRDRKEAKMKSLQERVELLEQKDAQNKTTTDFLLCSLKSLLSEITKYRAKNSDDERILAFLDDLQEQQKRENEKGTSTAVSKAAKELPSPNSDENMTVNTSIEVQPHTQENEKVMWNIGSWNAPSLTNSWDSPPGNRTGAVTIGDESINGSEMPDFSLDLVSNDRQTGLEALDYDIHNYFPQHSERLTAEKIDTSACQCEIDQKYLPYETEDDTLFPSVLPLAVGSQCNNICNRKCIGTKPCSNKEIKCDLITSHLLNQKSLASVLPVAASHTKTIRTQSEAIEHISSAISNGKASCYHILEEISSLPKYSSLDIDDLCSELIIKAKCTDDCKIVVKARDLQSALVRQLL
In short: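 Detection of bound protein used fluorescent anti-GST, with scans normalised by masliner. The proteins were GST-tagged yeast transcription factors applied at about 100-200 nM to universal all-10-mer Agilent arrays made double-stranded by primer extension. Each ungapped eight-base word, pooled with its reverse complement, was scored with an E-score from the Universal PBM Analysis Suite.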

Row | Sequence | PBM E-score
1 | CCGCGCGA | 0.295
2 | GTTATATA | 0.232
3 | TGTACGAA | 0.0881
4 | ATTATAAT | 0.227
5 | CTTGTGGC | -0.211
6 | ACAATCAG | 0.0284
7 | GGGTCTTA | -0.131
8 | CACGGCAC | -0.119
9 | CACTTAAC | 0.00927
10 | ACCTCCGT | -0.164
11 | GTACGTTA | 0.177
12 | CTTATACC | 0.0668
13 | AGTCTAAA | -0.166
14 | CCAGAAAC | -0.0733
15 | ACCAACTC | -0.122
16 | ACGCCAGT | -0.226
17 | GTTTCGTA | 0.211
18 | GGGGCCCC | -0.151
19 | CTTCCGAC | -0.0209
20 | CCAAGGCG | 0.0157
21 | ATAAGTAC | 0.0334
22 | ACAGAGGC | -0.0774
23 | GACACCGC | 0.0655
24 | CCGCAGAC | -0.0466
25 | CGTTTTTC | 0.0438

A few values from above.
PBM E-score, CACGGCAC is entered as -0.119
PBM E-score, GTACGTTA is entered as 0.177

(next part)

Row | Sequence | PBM E-score
26 | ATTAAGGG | -0.271
27 | AAGGATAT | 0.16
28 | GAGTCAAC | -0.14
29 | TGAGTGCA | 0.0231
30 | AAGAAGGA | -0.2
31 | AATTAGGA | 0.0377
32 | AACACCCG | 0.147
33 | AATTTTTA | 0.178
34 | ACACCGCA | 0.102
35 | CCCGCAAG | -0.172
36 | GCCTGCGA | -0.159
37 | CGCGGACA | 0.171
38 | CGTGTTTA | 0.0059
39 | CGCTTTAC | 0.039
40 | GCCAAGGA | -0.109
41 | AACGGGGA | 0.00344
42 | GCGGGAGA | -0.248
43 | CTGTTAGC | -0.105
44 | GCAATTGA | 0.118
45 | TCATCCAA | 0.0958
46 | AATGAACT | -0.00805
47 | CAGTATAG | 0.0621
48 | AAAGATGA | 0.213
49 | CACACGGC | -0.0732
50 | ACTAAATC | 0.191

Row | Sequence | PBM E-score
51 | CGCGCGCC | 0.254
52 | CAAAACGC | 0.0728
53 | CAATCACC | -0.062
54 | AAGATGAC | 0.162
55 | AGATTGAG | -0.0136
56 | GGAAGTGA | -0.0839
57 | AGCCCGCG | -0.0273
58 | ATTTTTTA | 0.162
59 | AATGTATG | 0.058
60 | GGGAAACA | -0.00119
61 | CCGAACGA | 0.158
62 | CATCCATG | -0.0474
63 | GACCGGAA | -0.0251
64 | GATCGCCA | -0.00992
65 | TGTCGGAA | -0.0766
66 | AAAGCGTG | -0.00012
67 | AGGGCGAA | -0.104
68 | CAAACGAC | 0.126
69 | CCAGCCCA | -0.329
70 | CCTGAGGC | -0.262
71 | GCGTGTCA | 0.237
72 | GCCCGGGC | -0.197
73 | ACTCCAGA | -0.056
74 | CTTGAAAC | 0.151
75 | CACTCTTA | 0.0388

Row | Sequence | PBM E-score
76 | GACACCTC | -0.00441
77 | ATGCGCAC | 0.14
78 | CTTCGACA | -0.0705
79 | AGAACGAT | 0.0277
80 | ACTAGTAG | 0.0854
81 | ACACTCTA | 0.148
82 | AGGTCTCA | -0.13
83 | ATCGTACA | -0.0599
84 | AGGAAGAG | -0.213
85 | CATCCTAG | -0.128
86 | CGGAATAC | 0.213
87 | GAGAGTGA | -0.0619
88 | AAATGTCA | 0.0725
89 | ACCCGTCT | -0.128
90 | ACGGAGAG | -0.258
91 | TCCTCACA | -0.115
92 | TACTAAAA | 0.0457
93 | ATATGGTG | 0.0677
94 | GCTTCCGA | -0.0158
95 | CTCTGTAA | -0.187
96 | ACCCCCAG | -0.327
97 | GTGAATTA | 0.135
98 | GACCAGTA | -0.18
99 | CCAACTTC | -0.128
100 | ACAGAGGT | -0.00228

Row | Sequence | PBM E-score
101 | CTTAGAGC | -0.0659
102 | AGCTTCCA | 0.00421
103 | ACAGGCCT | 0.0153
104 | CGTAACAC | 0.124
105 | CGTTGAAC | 0.0334
106 | GGGTGGTA | -0.115
107 | AGCGATAA | 0.139
108 | TCTCGCCA | -0.0892
109 | CCACACGC | 0.131
110 | GACCACGC | -0.0592
111 | CTGGTAGA | 0.011
112 | ACCTGGTC | -0.0493
113 | CGTGCTAC | -0.166
114 | CGTTGTTC | 0.0705
115 | CAAGTAAA | 0.0467
116 | CGGGGTAA | -0.0162
117 | CATTCGGA | 0.154
118 | CCATCCAA | -0.123
119 | ACAATTTC | -0.0372
120 | ATCTGCCG | 0.0115
121 | CTCGTGAC | 0.0148
122 | ACGACCAA | -0.0413
123 | AAATTTCT | 0.0575
124 | CCTATGCA | 0.116
125 | CACAGAGG | -0.0509

Pulled one by one from the entries so far (5):
Row | Sequence | PBM E-score
118 | CCATCCAA | -0.123
122 | ACGACCAA | -0.0413
124 | CCTATGCA | 0.116
116 | CGGGGTAA | -0.0162
110 | GACCACGC | -0.0592

The list goes on:

Row | Sequence | PBM E-score
126 | GGACCTAC | -0.0283
127 | ACACTTCG | -0.0366
128 | CCTGGCCG | 0.0114
129 | GCTTGGAA | -0.0509
130 | AGGTAATG | 0.093
131 | AATTTAAA | 0.126
132 | CAACGGTC | -0.0798
133 | AGAGGCGA | -0.178
134 | ACACGTAC | -0.0184
135 | GAGCAATC | 0.0311
136 | GGAGGCCA | -0.189
137 | GCCCCATA | -0.11
138 | ACCTTCTA | -0.0696
139 | AGAGGCAA | 0.0368
140 | CCAACAGA | -0.199
141 | GCTAGGAA | -0.0561
142 | CCTACGCG | 0.107
143 | AGTGCTCG | -0.0626
144 | AGCGGGGA | -0.0936
145 | CGGGTTTA | -0.0209
146 | ACACCGCT | -0.0223
147 | CATTCTAG | -0.198
148 | ATCTCGAG | 0.0128
149 | GGGCTAAA | 0.0452
150 | CACCTACC | -0.128

Row | Sequence | PBM E-score
151 | CAGAAAAA | 0.0393
152 | AAGGTCCC | -0.19
153 | ACGGTAAC | 0.066
154 | ATCCGGGA | -0.00639
155 | GCTCTGAA | -0.0267
156 | AGTGTCCG | 0.15
157 | ATAGTCAC | 0.097
158 | AGGATATC | 0.0233
159 | CGATTCAA | -0.118
160 | ACGAATCT | 0.042
161 | GCCACAAA | 0.079
162 | CAGACCGA | -0.171
163 | CTTGATCA | 0.131
164 | GGGCTCAC | -0.176
165 | ATCACACC | 0.0325
166 | CATGTGGA | -0.0908
167 | CTCTACAC | -0.103
168 | ACCAGGTC | -0.0921
169 | AGACGAAC | 0.192
170 | ATTATCAG | -0.0126
171 | AGATGTAC | -0.0616
172 | ATTAAATA | 0.226
